PubChem BioAssay AID602196 – INSERM | 2012
Here is an unselected part of about 23,000 reagents tested. 455 of all reagents (2%) count as active. 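Active includes both protection and sensitisation; some change values fall well beyond the stated -50 to +50 range.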 Unmarked entries are inactive. The numbers tell different reagents against one gene apart. Not all columns of the deposit are shown. Not stated in the record: the amount of reagent.

Test: 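Genes whose knock-down alters cisplatin killing of lung cancer cells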
System: human A549 lung cancer cells
Reagent: siRNA pair against human genes
Duration: 48 h transfection before cisplatin; time from cisplatin to read-out not stated
Conditions: cisplatin at a dose killing half of control-siRNA cells; exact dose and duration not given
Detection: 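Shift in cisplatin death relative to control siRNA, from -50 (all cells die) to +50 (no cells die); siRNAs harmful on their own scored 0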
Reading the numbers: two-siRNA summed score (-2 to +2): higher = both siRNAs protect from cisplatin killing; -2 means both sensitise
Rule for the call: 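siRNAs harmful alone (LDH or WST-1) get 0; others get +1 for less and -1 for more cisplatin killing; genes are active when the two siRNAs give the same sign, summing to ±2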
Meaning of the calls: active = both siRNAs shift cisplatin killing the same way; inactive = no consistent shift, or siRNA harmful alone

two-siRNA summed score (-2 to +2), by gene knocked down and reagent
FLT3LG: #1 0
IFT56: #1 0
AMTN: #1 0
PFAS: #1 0
EEF1DP3: #1 0
FCF1: #1 0
OR2B2: #1 0
LOC202051: #1 0
MCHR2: #1 0
SSR1: #1 2 (active)
HR: #1 0
STAM: #1 1
EIF3H: #1 0
PODN: #1 1
LOC401725: #1 0
LATS2: #1 1
ADCY10: #1 0
LOC400876: #1 1
MRPS18C: #1 0
LOC390565: #1 0
KLHL36: #1 0
RIMBP2: #1 1
ATG12: #1 1
GTF3C5: #1 0
STS: #1 0
CD200: #1 0
ANKIB1: #1 0
LOC440019: #1 0
DRC3: #1 0
HERC1: #1 0
FXYD3: #1 1
LOC401923: #1 -1
ACOX1: #1 0
TRPV4: #1 0
HOOK1: #1 0
LOC339306: #1 0
TUBA8: #1 0
HCFC1R1: #1 0
GOLGA7: #1 1
LRIG2: #1 0
AP3S1: #1 0
SACK1A: #1 0
GNG7: #1 0
LAIR2: #1 0
SORCS1: #1 1
VGF: #1 -1
BRINP1: #1 -1
C8orf48: #1 0
DYNC2LI1: #1 0
INSRR: #1 0
DKK3: #1 0
NSDHL: #1 0
SEMA4D: #1 -1; #2 1
IGSF3: #1 0
LOC440201: #1 1
TPSAB1: #1 0
ICAM5: #1 0
PSMB5: #1 1
LOC391540: #1 0
LOC387830: #1 1
MATK: #1 1
EMP3: #1 2 (active)
PTN: #1 0
LOC347475: #1 0
SLIRP: #1 0
SCARA5: #1 1
ABCA2: #1 0
NBPF15: #1 0
CD226: #1 0
ROBO4: #1 0
WDR70: #1 0
FGGY: #1 1

Part of the list above, set out differently:
| gene knocked down | reagent no. | two-siRNA summed score (-2 to +2) |
| --- | --- | --- |
| IFT56 | 1 | 0 |
| AMTN | 1 | 0 |
| PFAS | 1 | 0 |
| EEF1DP3 | 1 | 0 |
| FCF1 | 1 | 0 |
| OR2B2 | 1 | 0 |
